Data on 14 compounds can be found in PubChem BioAssay AID270 (DTP/NCI, 2004).

The list is a part of this screen's results and no random one: it gathers tests that were run many times, whatever their T/C, doses with no T/C, and many T/C values between a quarter and a half above the control. Other doses and runs of a compound stand elsewhere. T/C: endpoint of the treated group in % of that of the vehicle group. Schedule codes are those of the source, taken here to give the interval after Q, in days (D) or hours (H), and the number of doses after X. Some T/C values carry the count of animals alive at the toxicity check (mostly the fifth day); without a count, all were alive then. Some doses have a count of surviving animals in place of a T/C: the source holds a T/C of zero for them, seemingly a mark for toxic or unscored doses. Some survivor counts are full or nearly so, which does not show that the dose was tolerated: the source hardly ever lists a survival T/C far under the control, and the zero likely stands for such cases as well. Counts of survivors are from the toxicity check (mostly the fifth day) where no day follows; animals may have died later. Where survival is the endpoint, the PubChem record calls one and a half times the control and up active, and a quarter to a half above the control has no call in these data; cut-offs in other NCI protocols can differ. Some entries hold several experiments; the results are listed from low to high.

The assay has as its system BDF1 mice, s.c. Lewis lung carcinoma, T/C %. The experiment in a line: NCI In Vivo Anticancer Drug Screen. Data for tumor model Lewis Lung Carcinoma (subcutaneous) in B6D2F1 (BDF1) mice. As to the method:
The antitumor activity of compounds was measured in mice bearing transplantable tumors. Survival or tumor size were measured and the results are expressed as the measurement made in the treated group (T) divided by the measurement made in the vehicle treated control group (C). The tumor model used in this assay is Lewis Lung Carcinoma (subcutaneous) in B6D2F1 (BDF1) mice

The mark [1] stands for this setting: T/C endpoint: median survival time, dose: 0.25 mg/kg/injection, schedule: Q01DX009 (ip), vehicle: saline, higher T/C = longer survival.
The mark [2] stands for this setting: T/C endpoint: median survival time, dose: 0.5 mg/kg/injection, schedule: Q01DX009 (ip), vehicle: saline, higher T/C = longer survival.
Where [3] appears, read: T/C endpoint: median survival time, dose: 1.0 mg/kg/injection, schedule: Q01DX009 (ip), vehicle: saline, higher T/C = longer survival.
[4] abbreviates: T/C endpoint: median survival time, dose: 2.0 mg/kg/injection, schedule: Q01DX009 (ip), vehicle: saline, higher T/C = longer survival.
The mark [5] stands for this setting: T/C endpoint: median survival time, dose: 4.0 mg/kg/injection, schedule: Q01DX009 (ip), vehicle: saline, higher T/C = longer survival.
Where [6] appears, read: T/C endpoint: mean tumor weight, dose: 25.0 mg/kg/injection, schedule: Q01DX011 (ip), vehicle: saline, higher T/C = larger tumour.

Take `O=c1[nH]cc(N(CCCl)CCCl)c(=O)[nH]1`: the survivor count by setting is: (T/C endpoint: mean tumor weight, dose: 0.85 mg/kg/injection, schedule: Q01DX011 (ip), vehicle: carboxymethylcellulose (CMC), higher T/C = larger tumour) 6 of 10; (T/C endpoint: mean tumor weight, dose: 1.7 mg/kg/injection, schedule: Q01DX011 (ip), vehicle: carboxymethylcellulose (CMC), higher T/C = larger tumour) 4 of 10; under setting [3], 10 of 10; under setting [4], 10 of 10; under setting [5], 9 of 10. Moreover, the T/C is 136 % of control under setting [1] and 136 % of control under setting [2].
Take `CC1=CC(=O)N(NC(N)=O)C1=O`: the survivor count (T/C endpoint: median survival time, dose: 100.0 mg/kg/injection, schedule: Q01DX009 (ip), vehicle: saline, higher T/C = longer survival) is on record as 7 of 10.
With `CC(=O)OC1CC(OC2C(O)CC(OC3C(O)CC(OC4CCC5(C)C(CCC6C5CCC5(C)C(C7=CC(=O)OC7)CCC65O)C4)OC3C)OC2C)OC(C)C1OC1OC(CO)C(O)C(O)C1O` (stereo unspecified), the survivor count was 0 of 6 (T/C endpoint: mean tumor weight, dose: 10.0 mg/kg/injection, schedule: Q01DX011 (ip), vehicle: carboxymethylcellulose (CMC), higher T/C = larger tumour); 0 of 6 (T/C endpoint: mean tumor weight, dose: 20.0 mg/kg/injection, schedule: Q01DX011 (ip), vehicle: carboxymethylcellulose (CMC), higher T/C = larger tumour); 0 of 6 (T/C endpoint: mean tumor weight, dose: 40.0 mg/kg/injection, schedule: Q01DX011 (ip), vehicle: carboxymethylcellulose (CMC), higher T/C = larger tumour).
`CC1(C)N=C(N)N=C(N)N1c1cccc(Br)c1`: the survivor count by setting is: (T/C endpoint: mean tumor weight, dose: 25.0 mg/kg/injection, schedule: Q01DX011 (ip), vehicle: other, higher T/C = larger tumour) 3 of 6; (T/C endpoint: mean tumor weight, dose: 100.0 mg/kg/injection, schedule: Q01DX011 (ip), vehicle: other, higher T/C = larger tumour) 0 of 6; (T/C endpoint: mean tumor weight, dose: 200.0 mg/kg/injection, schedule: Q01DX011 (ip), vehicle: other, higher T/C = larger tumour) 0 of 6.
As for `Clc1cccc(Br)c1`, the survivor count is 1 of 6 (T/C endpoint: mean tumor weight, dose: 118.0 mg/kg/injection, schedule: Q01DX011 (ip), vehicle: other, higher T/C = larger tumour); 0 of 6 (T/C endpoint: mean tumor weight, dose: 178.0 mg/kg/injection, schedule: Q01DX011 (ip), vehicle: other, higher T/C = larger tumour); 1 of 6 (T/C endpoint: mean tumor weight, dose: 266.0 mg/kg/injection, schedule: Q01DX011 (ip), vehicle: other, higher T/C = larger tumour); 0 of 6 (T/C endpoint: mean tumor weight, dose: 400.0 mg/kg/injection, schedule: Q01DX011 (ip), vehicle: other, higher T/C = larger tumour).
As for `CN(C)Nc1ncnc2nc[nH]c12`, under setting [6], the survivor count is reported as 0 of 6.
On to `CC/C(C)=C1\OC(=O)C(C)C(O)C(Cc2cccnc2)NC(=O)C(NC(=O)c2ncccc2O)C(C)OC1=O` (stereo unspecified), for which, for the setting “T/C endpoint: median survival time, dose: 25.0 mg/kg/injection, schedule: Q01DX009 (ip), vehicle: saline with Tween-80, higher T/C = longer survival”, the survivor count was 10 of 10.
Take `O=NN(CCCl)C(=O)Nc1ccc2c3c(cccc13)-c1ccccc1-2`: under “T/C endpoint: median survival time, dose: 400.0 mg/kg/injection, schedule: Q01DX009 (ip), vehicle: Klucel (hydroxypropylcellulose) (HPC), higher T/C = longer survival”, the survivor count is recorded as 9 of 10.
Regarding `CS(=O)(=O)OCC#CCOS(C)(=O)=O`, the T/C (T/C endpoint: mean tumor weight, dose: 8.0 mg/kg/injection, schedule: Q01DX011 (ip), vehicle: saline, evaluated on day 12, higher T/C = larger tumour) was 135 % of control. Besides, the survivor count (T/C endpoint: mean tumor weight, dose: 64.0 mg/kg/injection, schedule: Q01DX011 (ip), vehicle: saline, higher T/C = larger tumour) is listed as 1 of 6.
`COc1cccc2c1C(=O)c1c(O)c3c(c(O)c1C2=O)C[C@@](O)(C(C)=O)C[C@@H]3OC1CC(N)C(O)C(C)O1` (stereo partly specified): the T/C is 130 % of control (T/C endpoint: mean tumor weight, dose: 3.0 mg/kg/injection, schedule: Q01DX011 (sc), vehicle: steroid suspending solution, evaluated on day 12, higher T/C = larger tumour); 103, 110, 112, 118 % of control under setting [1]; 91, 94, 102, 116 % of control under setting [2]; 98, 100, 125, 144 % of control under setting [3]; 89, 101, 113 % of control under setting [4]; 135 % of control (T/C endpoint: median survival time, dose: 250.0 micrograms/kg/injection, schedule: Q01DX009 (ip), vehicle: saline, higher T/C = longer survival). The survivor count by setting is: (T/C endpoint: mean tumor weight, dose: 4.0 mg/kg/injection, schedule: Q01DX011 (ip), vehicle: saline, higher T/C = larger tumour) 3 of 10; (T/C endpoint: mean tumor weight, dose: 10.0 mg/kg/injection, schedule: Q01DX011 (sc), vehicle: steroid suspending solution, higher T/C = larger tumour) 1 of 6; under setting [4], 10 of 10; under setting [5], 10 of 10.
For the compound `COc1ccc2cc3[n+](cc2c1OC)CCc1cc2c(cc1-3)OCO2`, the survivor count by setting is: under setting [6], 0 of 6; (T/C endpoint: mean tumor weight, dose: 50.0 mg/kg/injection, schedule: Q01DX011 (ip), vehicle: saline, higher T/C = larger tumour) 0 of 6; (T/C endpoint: mean tumor weight, dose: 75.0 mg/kg/injection, schedule: Q01DX011 (ip), vehicle: saline, higher T/C = larger tumour) 0 of 6.
Consider `CC(=O)OCC1=CC2OC(=O)C3=COC(OC4OC(CO)C(O)C(O)C4O)C1C32` (stereo unspecified), for which the T/C (T/C endpoint: mean tumor weight, dose: 220.0 mg/kg/injection, schedule: Q01DX011 (ip), vehicle: carboxymethylcellulose (CMC), evaluated on day 12, higher T/C = larger tumour) is 134 % of control [5 of 6 alive]. Also, the survivor count (T/C endpoint: mean tumor weight, dose: 330.0 mg/kg/injection, schedule: Q01DX011 (ip), vehicle: carboxymethylcellulose (CMC), higher T/C = larger tumour) is recorded as 3 of 6.
Take `N#Cc1ncc(C(Cl)Cl)nc1Cl`: the survivor count (T/C endpoint: median survival time, dose: 100.0 mg/kg/injection, schedule: Q01DX009 (ip), vehicle: saline with Tween-80, higher T/C = longer survival) is on record as 10 of 10 and the survivor count (T/C endpoint: median survival time, dose: 200.0 mg/kg/injection, schedule: Q01DX009 (ip), vehicle: saline with Tween-80, higher T/C = longer survival) is 4 of 10.
With `Nc1nc(SCc2ccccc2Cl)c2[nH]cnc2n1`, under “T/C endpoint: mean tumor weight, dose: 180.0 mg/kg/injection, schedule: Q01DX011 (ip), vehicle: other, higher T/C = larger tumour”, the survivor count is on record as 0 of 6.
